From the supplement of paper PMC10849652
Some of the results follow.

Protein sequences, listed by entry. Tags and fused reporters are not part of them. Lines headed by an entry give the natural chain unless they say otherwise; changes in a name come on top.
UniProt Q9H9H4: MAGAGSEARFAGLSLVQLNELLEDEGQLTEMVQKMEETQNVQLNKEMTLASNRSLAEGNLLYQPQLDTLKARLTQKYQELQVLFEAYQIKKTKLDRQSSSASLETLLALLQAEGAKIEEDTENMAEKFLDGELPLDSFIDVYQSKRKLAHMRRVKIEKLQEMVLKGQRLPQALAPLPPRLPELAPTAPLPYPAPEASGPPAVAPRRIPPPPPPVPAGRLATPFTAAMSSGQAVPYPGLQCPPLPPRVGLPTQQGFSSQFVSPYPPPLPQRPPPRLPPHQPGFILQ
UniProt P98170, whole entry, looked up: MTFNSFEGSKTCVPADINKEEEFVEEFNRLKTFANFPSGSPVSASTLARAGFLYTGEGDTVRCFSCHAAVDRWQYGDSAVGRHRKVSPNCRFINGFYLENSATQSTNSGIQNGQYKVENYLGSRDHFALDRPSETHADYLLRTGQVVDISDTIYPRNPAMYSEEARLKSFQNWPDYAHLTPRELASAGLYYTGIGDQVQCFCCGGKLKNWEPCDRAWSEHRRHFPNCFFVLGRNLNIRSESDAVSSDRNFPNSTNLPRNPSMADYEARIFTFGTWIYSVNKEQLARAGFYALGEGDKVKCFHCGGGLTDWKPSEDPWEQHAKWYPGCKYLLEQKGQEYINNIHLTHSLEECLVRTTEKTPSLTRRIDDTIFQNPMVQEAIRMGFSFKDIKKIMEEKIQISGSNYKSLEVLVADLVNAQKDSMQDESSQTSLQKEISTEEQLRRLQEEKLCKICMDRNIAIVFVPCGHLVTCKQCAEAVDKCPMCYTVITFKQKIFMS
UniProt Q3ZAQ7: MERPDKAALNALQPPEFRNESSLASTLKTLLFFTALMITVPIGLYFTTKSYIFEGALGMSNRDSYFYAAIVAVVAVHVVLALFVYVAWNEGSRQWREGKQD
UniProt Q502W6: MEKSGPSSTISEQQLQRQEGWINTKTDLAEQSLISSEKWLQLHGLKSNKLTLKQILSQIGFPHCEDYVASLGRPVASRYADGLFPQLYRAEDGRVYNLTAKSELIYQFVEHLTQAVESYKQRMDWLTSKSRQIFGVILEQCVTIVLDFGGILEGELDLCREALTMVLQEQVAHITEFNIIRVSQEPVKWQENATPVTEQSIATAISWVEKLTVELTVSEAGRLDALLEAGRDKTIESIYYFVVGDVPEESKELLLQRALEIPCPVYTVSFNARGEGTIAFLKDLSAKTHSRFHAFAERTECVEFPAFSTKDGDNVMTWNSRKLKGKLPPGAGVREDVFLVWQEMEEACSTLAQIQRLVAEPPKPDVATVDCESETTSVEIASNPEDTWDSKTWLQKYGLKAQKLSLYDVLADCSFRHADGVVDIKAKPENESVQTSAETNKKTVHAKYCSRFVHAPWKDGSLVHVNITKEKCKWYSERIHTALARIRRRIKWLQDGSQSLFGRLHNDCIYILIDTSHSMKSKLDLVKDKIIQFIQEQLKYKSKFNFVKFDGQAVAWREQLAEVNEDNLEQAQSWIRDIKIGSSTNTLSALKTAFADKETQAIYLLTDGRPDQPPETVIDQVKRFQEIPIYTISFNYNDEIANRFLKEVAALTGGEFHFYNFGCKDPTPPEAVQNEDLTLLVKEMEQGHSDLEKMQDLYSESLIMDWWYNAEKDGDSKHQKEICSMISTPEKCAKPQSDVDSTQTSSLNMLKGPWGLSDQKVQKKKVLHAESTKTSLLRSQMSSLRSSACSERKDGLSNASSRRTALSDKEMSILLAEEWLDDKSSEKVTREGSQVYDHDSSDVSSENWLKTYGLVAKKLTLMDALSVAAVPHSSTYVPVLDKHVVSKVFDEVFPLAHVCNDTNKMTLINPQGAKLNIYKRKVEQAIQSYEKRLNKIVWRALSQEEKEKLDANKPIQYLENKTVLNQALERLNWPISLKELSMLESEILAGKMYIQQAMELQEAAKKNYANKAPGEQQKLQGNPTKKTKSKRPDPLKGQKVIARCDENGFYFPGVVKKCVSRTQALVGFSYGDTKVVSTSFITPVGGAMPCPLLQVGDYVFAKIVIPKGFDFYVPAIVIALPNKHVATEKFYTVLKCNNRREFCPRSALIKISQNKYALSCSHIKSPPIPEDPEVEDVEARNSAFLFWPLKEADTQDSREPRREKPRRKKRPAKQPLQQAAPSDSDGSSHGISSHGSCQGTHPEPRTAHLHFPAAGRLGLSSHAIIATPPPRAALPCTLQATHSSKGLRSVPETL
UniProt A5D8V6: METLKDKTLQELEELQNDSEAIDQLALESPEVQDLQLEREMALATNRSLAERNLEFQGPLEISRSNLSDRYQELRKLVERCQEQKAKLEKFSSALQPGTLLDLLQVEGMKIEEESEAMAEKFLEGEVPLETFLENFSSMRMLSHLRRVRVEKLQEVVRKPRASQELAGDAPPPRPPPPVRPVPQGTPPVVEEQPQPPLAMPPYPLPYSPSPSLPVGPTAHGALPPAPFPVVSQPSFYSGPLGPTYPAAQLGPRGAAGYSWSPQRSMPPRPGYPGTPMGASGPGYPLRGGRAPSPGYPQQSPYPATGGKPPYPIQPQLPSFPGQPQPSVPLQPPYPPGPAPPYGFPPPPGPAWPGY
UniProt A4D1P6: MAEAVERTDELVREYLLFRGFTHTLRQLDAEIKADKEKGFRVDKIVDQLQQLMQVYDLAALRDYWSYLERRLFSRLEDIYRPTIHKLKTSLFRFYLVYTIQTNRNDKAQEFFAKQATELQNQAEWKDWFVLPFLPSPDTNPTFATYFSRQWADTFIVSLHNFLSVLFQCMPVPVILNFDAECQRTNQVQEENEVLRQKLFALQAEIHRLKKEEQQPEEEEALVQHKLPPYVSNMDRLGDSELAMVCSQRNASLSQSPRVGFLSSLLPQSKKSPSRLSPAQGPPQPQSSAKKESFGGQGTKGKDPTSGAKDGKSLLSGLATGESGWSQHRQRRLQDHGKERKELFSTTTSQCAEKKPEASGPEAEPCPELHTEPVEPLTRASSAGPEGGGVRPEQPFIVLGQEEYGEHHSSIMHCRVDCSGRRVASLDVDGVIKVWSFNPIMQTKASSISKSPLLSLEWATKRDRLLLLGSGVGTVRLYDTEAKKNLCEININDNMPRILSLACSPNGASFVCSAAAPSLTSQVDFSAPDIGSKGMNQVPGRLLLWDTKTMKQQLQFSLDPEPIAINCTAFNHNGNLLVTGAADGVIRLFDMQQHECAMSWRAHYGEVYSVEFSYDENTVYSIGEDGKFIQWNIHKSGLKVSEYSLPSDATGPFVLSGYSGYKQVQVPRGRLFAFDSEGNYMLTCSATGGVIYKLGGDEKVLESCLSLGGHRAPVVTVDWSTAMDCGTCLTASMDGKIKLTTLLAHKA
UniProt Q69YN4: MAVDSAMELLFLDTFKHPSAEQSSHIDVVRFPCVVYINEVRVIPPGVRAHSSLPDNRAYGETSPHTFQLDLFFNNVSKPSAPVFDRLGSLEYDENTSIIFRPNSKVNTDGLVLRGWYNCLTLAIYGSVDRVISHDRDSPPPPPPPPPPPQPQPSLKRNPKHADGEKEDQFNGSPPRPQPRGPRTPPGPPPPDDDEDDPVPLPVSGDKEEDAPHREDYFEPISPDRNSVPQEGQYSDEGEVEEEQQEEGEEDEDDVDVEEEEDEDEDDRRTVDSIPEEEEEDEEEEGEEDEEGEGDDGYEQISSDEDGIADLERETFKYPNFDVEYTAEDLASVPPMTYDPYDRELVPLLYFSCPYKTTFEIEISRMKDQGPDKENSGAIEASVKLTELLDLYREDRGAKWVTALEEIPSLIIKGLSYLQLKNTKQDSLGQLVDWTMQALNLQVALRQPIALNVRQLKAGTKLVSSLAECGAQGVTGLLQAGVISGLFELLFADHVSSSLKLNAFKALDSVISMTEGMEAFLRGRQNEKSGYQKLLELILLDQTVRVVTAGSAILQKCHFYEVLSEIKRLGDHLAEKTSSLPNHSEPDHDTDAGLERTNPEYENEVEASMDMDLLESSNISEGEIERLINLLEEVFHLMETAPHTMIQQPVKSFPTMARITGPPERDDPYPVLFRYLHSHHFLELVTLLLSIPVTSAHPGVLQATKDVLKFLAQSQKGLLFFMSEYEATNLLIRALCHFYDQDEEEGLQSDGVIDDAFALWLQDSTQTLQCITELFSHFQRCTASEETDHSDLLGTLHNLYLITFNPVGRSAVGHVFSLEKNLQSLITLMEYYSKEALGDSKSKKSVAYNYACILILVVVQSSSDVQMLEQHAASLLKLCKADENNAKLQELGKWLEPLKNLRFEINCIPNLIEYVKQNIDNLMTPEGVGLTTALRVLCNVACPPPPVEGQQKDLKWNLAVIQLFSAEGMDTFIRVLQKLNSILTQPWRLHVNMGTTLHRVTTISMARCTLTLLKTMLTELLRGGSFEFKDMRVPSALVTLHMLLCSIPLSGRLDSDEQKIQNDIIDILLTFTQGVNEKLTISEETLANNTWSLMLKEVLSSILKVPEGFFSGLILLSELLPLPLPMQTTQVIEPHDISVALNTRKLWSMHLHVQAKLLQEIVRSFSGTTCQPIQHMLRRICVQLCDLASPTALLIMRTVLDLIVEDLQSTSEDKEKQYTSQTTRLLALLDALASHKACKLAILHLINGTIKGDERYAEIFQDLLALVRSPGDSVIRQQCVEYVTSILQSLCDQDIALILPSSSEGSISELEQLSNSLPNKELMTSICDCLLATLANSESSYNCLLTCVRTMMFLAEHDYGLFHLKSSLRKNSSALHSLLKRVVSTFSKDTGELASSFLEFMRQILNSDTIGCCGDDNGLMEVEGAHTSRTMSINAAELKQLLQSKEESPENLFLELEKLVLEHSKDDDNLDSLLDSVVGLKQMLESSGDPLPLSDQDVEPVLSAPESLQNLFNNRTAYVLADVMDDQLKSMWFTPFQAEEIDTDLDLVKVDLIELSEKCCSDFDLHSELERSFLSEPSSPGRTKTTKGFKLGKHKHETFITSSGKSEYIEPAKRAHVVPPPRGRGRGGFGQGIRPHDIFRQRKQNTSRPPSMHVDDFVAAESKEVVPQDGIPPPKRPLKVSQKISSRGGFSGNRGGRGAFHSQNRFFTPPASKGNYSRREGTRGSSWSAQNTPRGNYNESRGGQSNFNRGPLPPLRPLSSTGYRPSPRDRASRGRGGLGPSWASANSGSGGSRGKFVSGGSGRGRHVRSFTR
UniProt Q96P53: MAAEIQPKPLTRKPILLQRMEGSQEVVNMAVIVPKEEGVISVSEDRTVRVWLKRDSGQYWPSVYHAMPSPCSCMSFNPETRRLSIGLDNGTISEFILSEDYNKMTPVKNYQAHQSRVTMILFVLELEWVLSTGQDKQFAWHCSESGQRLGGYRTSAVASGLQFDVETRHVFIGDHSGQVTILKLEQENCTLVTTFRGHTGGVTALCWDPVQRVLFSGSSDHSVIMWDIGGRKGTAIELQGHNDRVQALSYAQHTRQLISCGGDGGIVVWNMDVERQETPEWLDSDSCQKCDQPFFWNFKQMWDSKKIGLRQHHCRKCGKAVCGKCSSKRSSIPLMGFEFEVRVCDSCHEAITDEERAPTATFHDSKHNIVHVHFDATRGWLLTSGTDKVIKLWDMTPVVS

How the values were obtained:
Experiment in all cases: log2 fold change, soluble protein after heating vs DMSO (PISA); higher = thermal stabilisation; K562 cells, 10 uM, 30 min; active = over 0.2 and 3.5 SD of the protein, either way, in both replicates (recomputed)
[1] = compound: CS(=O)(=O)c1ccc(-c2cnc(N)c(C(=O)Nc3ccccc3)n2)cc1
Outline: (§1)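 K562 cells at 2×10^6 cells/mL were exposed to 10 μM compound for 30 min, then aliquots were heated for 3 min across 48°C-58°C, pooled, and extracted in PBS containing 0.5% NP-40 at 4°C. The supernatant after 21,000xg for 90 min was taken as soluble protein and measured by TMTpro 16plex LC-MS/MS with channel sums equalised. Thermal stability is reported relative to control samples, with values from duplicates. Fold changes are given on a log2 scale.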

crizotinib = compound: C[C@@H](Oc1cc(-c2cnn(C3CCNCC3)c2)cnc1N)c1c(Cl)ccc(F)c1Cl [crizotinib]
Outline: as §1

[2] = compound: C[C@@H]1COCCN1C2=NC(=NC(=C2)C3(CC3)S(=O)(=O)C)C4=C5C=CNC5=CC=C4
Outline: as §1

[3] = compound: C[C@H](C1=CC=C(C=C1)C(=O)NC2=C3C=CNC3=NC=C2)N
Outline: as §1

gandotinib = compound: Cc1cc(Nc2cc(CN3CCOCC3)c3nc(C)c(Cc4ccc(Cl)cc4F)n3n2)n[nH]1 [gandotinib]
Outline: as §1

[4] = compound: Cc1cc(SCc2sc(-c3ccc(C(F)(F)F)cc3)nc2C)ccc1OCC(=O)O
Outline: as §1

doramapimod = compound: Cc1ccc(-n2nc(C(C)(C)C)cc2NC(=O)Nc2ccc(OCCN3CCOCC3)c3ccccc23)cc1 [doramapimod]
Outline: as §1

ispinesib = compound: Cc1ccc(C(=O)N(CCCN)[C@@H](c2nc3cc(Cl)ccc3c(=O)n2Cc2ccccc2)C(C)C)cc1 [ispinesib]
Outline: as §1

tozasertib = compound: Cc1cc(Nc2cc(N3CCN(C)CC3)nc(Sc3ccc(NC(=O)C4CC4)cc3)n2)n[nH]1 [tozasertib]
Outline: as §1

duvelisib = compound: C[C@H](Nc1ncnc2nc[nH]c12)c1cc2cccc(Cl)c2c(=O)n1-c1ccccc1 [duvelisib]
Outline: as §1

Measured: log2 fold change

VPS35L (UniProt Q7Z3J2)
inactive: [1] 0.054 | crizotinib -0.128 | [2] -0.043 | [3] 0.186 | gandotinib 0 | [4] 0.023 | doramapimod 0.02 | ispinesib -0.11

WDR33 (UniProt Q9C0J8)
inactive: [1] -0.134 | [2] -0.087 | [3] 0.136 | tozasertib 0.133 | ispinesib -0.024

WARS1 (UniProt G3V5U1)
inactive: [1] 0.092 | crizotinib 0.09 | [2] -0.282 | doramapimod -0.299

VKORC1 (UniProt Q9BQB6)
inactive: [1] 0.012 | [3] -0.032 | gandotinib -0.116 | [4] 0.106 | doramapimod 0.033 | ispinesib -0.108
active: crizotinib 0.494

VPS72 isoform 2 (UniProt Q15906)
inactive: [1] -0.041 | [2] 0.093 | [3] 0.196 | [4] -0.021 | ispinesib 0.218

VPS33A (UniProt Q96AX1)
inactive: [1] -0.031 | crizotinib -0.218 | [2] 0.014 | [3] 0.043 | gandotinib -0.091 | [4] 0.049 | doramapimod -0.017 | ispinesib -0.154

VPS37B (UniProt Q9H9H4)
inactive: [1] 0.095 | crizotinib -0.019 | [2] 0.147 | duvelisib 0.072 | gandotinib -0.153 | tozasertib 0.028 | [4] 0.011 | doramapimod -0.038 | ispinesib -0.036

VDAC1 (UniProt P21796)
inactive: [1] 0 | crizotinib 0.076 | [2] -0.004 | [3] -0.063 | gandotinib 0.017 | [4] -0.031 | doramapimod -0.024 | ispinesib 0.034

XIAP (UniProt P98170)
inactive: [1] 0.125 | [2] 0.092 | [3] -0.09 | gandotinib 0.061 | [4] -0.036

WARS1 (UniProt G3V277)
inactive: [1] -0.009 | crizotinib -0.001 | gandotinib -0.218 | doramapimod 0.029

WASHC2C, A0A096LPC5
inactive: [1] -0.078 | crizotinib -0.363 | [2] 0.031 | [3] 0.025 | gandotinib 0.189 | [4] -0.053 | doramapimod 0.02 | ispinesib -0.135

VMA21 (UniProt Q3ZAQ7)
inactive: [1] 0.02 | crizotinib 0.016 | [2] 0.071 | [3] 0.058 | gandotinib 0.021 | doramapimod 0.044

WASF1 (UniProt Q92558)
inactive: crizotinib -0.047 | [2] 0.058 | [3] -0.033 | duvelisib 0.038 | gandotinib -0.025 | tozasertib 0.006 | [4] 0.154 | doramapimod -0.035 | ispinesib -0.079

XAB2 (UniProt Q9HCS7)
inactive: [2] -0.223 | [4] 0.013 | doramapimod -0.035 | ispinesib -0.223
active: crizotinib -0.69

VPS13A isoform 4 (UniProt Q96RL7)
inactive: tozasertib 0.007 | ispinesib 0.026

WWP2 (UniProt O00308)
inactive: crizotinib -0.006 | [2] -0.003 | doramapimod 0.046

VWA3B isoform 6 (UniProt Q502W6)
inactive: crizotinib -0.012 | [2] 0.074 | [3] 0.045 | gandotinib -0.08 | [4] 0.172 | doramapimod 0.079 | ispinesib -0.266

VPS54 (UniProt Q9P1Q0)
inactive: tozasertib -0.049

WDR13, A0A087X091
inactive: crizotinib -0.027 | doramapimod -0.051

VPS37C (UniProt A5D8V6)
inactive: crizotinib -0.096 | [2] 0.105 | [3] 0.034 | duvelisib 0.063 | gandotinib -0.016 | tozasertib 0.027 | [4] 0.042 | doramapimod 0.054

VEGFA (UniProt H0YBI8)
inactive: crizotinib 0.027 | duvelisib 0.175 | tozasertib 0.061 | [4] 0.002 | doramapimod 0.073 | ispinesib 0.133

WWOX (UniProt Q9NZC7)
inactive: [1] -0.068 | [3] -0.122 | tozasertib 0.027

VWF (UniProt P04275)
inactive: crizotinib 0 | doramapimod -0.063

WDR91 (UniProt A4D1P6)
inactive: crizotinib 0.006 | [2] -0.109 | [3] 0.083 | duvelisib 0 | tozasertib 0.171 | [4] 0.036 | doramapimod 0.08 | ispinesib -0.404

VIPAS39 (UniProt Q9H9C1)
inactive: [1] -0.097 | [3] 0.045 | duvelisib -0.229 | tozasertib 0.006 | [4] 0.237

VDAC2 (UniProt Q5JSD1)
inactive: [2] 0.25 | ispinesib -0.03

VHL (UniProt P40337)
inactive: [1] -0.122 | [3] -0.056 | duvelisib 0.228 | [4] 0.19 | ispinesib -0.061

VCPKMT (UniProt Q9H867)
inactive: tozasertib 0.014

VNN1 (UniProt O95497)
inactive: [3] 0.172

WAC (UniProt Q9BTA9)
inactive: crizotinib -0.269 | gandotinib 0.01 | doramapimod 0.002

VMA21 isoform 2 (UniProt Q3ZAQ7)
inactive: crizotinib 0.036 | [2] 0.264 | [3] -0.134 | duvelisib -0.315 | gandotinib 0.125 | tozasertib -0.03 | [4] -0.201 | doramapimod -0.085

VIRMA (UniProt Q69YN4)
inactive: crizotinib 0.095 | [2] 0.232 | [3] 0.029 | gandotinib 0.11 | doramapimod 0.03 | ispinesib -0.042

VPS35, A0A1W2PP10
inactive: crizotinib -0.267 | [2] -0.221 | tozasertib 0.008 | doramapimod 0.059

WDR54 isoform 4 (UniProt Q9H977)
inactive: duvelisib 0.273 | [4] 0.148

3 neighbouring records from above, quoted:
VWF (UniProt P04275)
inactive: crizotinib 0 | doramapimod -0.063

WDR91 (UniProt A4D1P6)
inactive: crizotinib 0.006 | [2] -0.109 | [3] 0.083 | duvelisib 0 | tozasertib 0.171 | [4] 0.036 | doramapimod 0.08 | ispinesib -0.404

VIPAS39 (UniProt Q9H9C1)
inactive: [1] -0.097 | [3] 0.045 | duvelisib -0.229 | tozasertib 0.006 | [4] 0.237

Following part.

WDR76 (UniProt Q9H967)
inactive: [2] -0.053

WARS1 (UniProt G3V339)
inactive: [2] -0.123

WDR75 (UniProt Q8IWA0)
inactive: crizotinib -0.07 | [2] -0.03 | [3] 0.185 | [4] 0.112 | doramapimod 0.145 | ispinesib -0.219

WDR19 (UniProt Q8NEZ3)
inactive: [3] -0.003 | duvelisib -0.034 | tozasertib -0.241 | [4] 0.02 | ispinesib 0.064

WIPI2 isoform 6 (UniProt Q9Y4P8)
inactive: [3] -0.19 | gandotinib -0.443

WNK4 (UniProt Q96J92)
inactive: [2] -0.134 | tozasertib 0.06

WDFY2 (UniProt Q96P53)
inactive: duvelisib -0.222 | tozasertib -0.031 | [4] 0.03

WTAP (UniProt Q15007)
inactive: [1] -0.04 | duvelisib -0.294 | [4] 0.077

VIL1 (UniProt P09327)
inactive: [2] -0.01 | gandotinib -0.201

VLDLR (UniProt P98155)
inactive: [1] -0.074 | [2] -0.054 | gandotinib 0.111 | tozasertib -0.034

WSB1 (UniProt Q9Y6I7)
inactive: [2] -0.229

WARS1 (UniProt G3V227)
inactive: [2] -0.024 | [3] 0.147 | [4] -0.015
